The name of at least one read-out is uncertain. Some entries repeat one wording, which the source may state once for all of them.
Tested on: DROSME, AEDSAE, or LAPHEG (Drosophila melanogaster, Aedes aegypti, Spodoptera exigua)
Experiment: Insecticidal activity, diet/water plate tests
Assay type: in vivo
Conditions: any of DROSME (80 μg/well), AEDSAE (6 μg/well), LAPHEG (12 μg/well) controlled at 80% or more

| SMILES | Activity against insects |
| --- | --- |
| Cc1cc(CCNc2ncnc3c(F)cc(F)c(F)c23)ccc1O [Compound 70] | − (“−” indicates lack of activity) |
| COc1ccc(CCNc2ncnc3c(F)ccc(F)c23)c(F)c1 [Compound 72] | + (“+” indicates activity) |
| Fc1cc(F)c2ncnc(NCCc3ccc(Oc4ccc(C(F)(F)F)cn4)cc3)c2c1F [Compound 74] | + (“+” indicates activity) |
| [O-][n+]1ccc(C(F)(F)F)cc1Oc1ccc(CCNc2ncnc3c(F)cc(F)c(F)c23)cc1 [Compound 75] | − (“−” indicates lack of activity) |
| Fc1cc(Oc2cc(C(F)(F)F)ccn2)ccc1CCNc1ncnc2c(F)ccc(F)c12 [Compound 76] | + (“+” indicates activity) |
| COc1cc(CCNc2ncnc3c(F)ccc(F)c23)ccc1Oc1ccnc(C(F)(F)F)c1 [Compound 77] | + (“+” indicates activity) |
| Cc1cc(CCNc2ncnc3c(F)ccc(F)c23)ccc1Oc1c(Cl)cnc(C(F)(F)F)c1Cl [Compound 79] | + (“+” indicates activity) |
| Cc1cc(CCNc2ncnc3c(F)cc(F)c(F)c23)ccc1Oc1cc(C(F)(F)F)ccn1 [Compound 80] | + (“+” indicates activity) |
| Cc1cc(CCNc2ncnc3c(F)cc(F)c(F)c23)ccc1Oc1cc(C(F)(F)F)cc[n+]1[O-] [Compound 81] | + (“+” indicates activity) |
| Cc1cc(CCNc2ncnc3c(F)ccc(F)c23)ccc1Oc1ccnc(C(F)(F)F)c1 [Compound 82] | + (“+” indicates activity) |
| Fc1ccc(F)c2c(NCCc3ccc(Oc4ccncc4C(F)(F)F)cc3)ncnc12 [Compound 83] | + (“+” indicates activity) |
| [O-][n+]1ccc(Oc2ccc(CCNc3ncnc4c(F)ccc(F)c34)cc2)c(C(F)(F)F)c1 [Compound 84] | + (“+” indicates activity) |
| COc1ccc(CCNc2ncnc3c(F)ccc(F)c23)cc1Cl [Compound 85] | − (“−” indicates lack of activity) |
| COc1ccc(CCNc2ncnc3c(F)cc(F)c(F)c23)cc1Cl [Compound 86] | − (“−” indicates lack of activity) |
| Oc1ccc(CCNc2ncnc3c(F)ccc(F)c23)cc1Cl [Compound 87] | − (“−” indicates lack of activity) |
| Oc1ccc(CCNc2ncnc3c(F)cc(F)c(F)c23)cc1Cl [Compound 88] | − (“−” indicates lack of activity) |
| COc1cc(CCNc2ncnc3c(F)ccc(F)c23)ccc1Oc1c(Cl)cnc(C(Cl)(Cl)Cl)c1Cl [Compound 89] | + (“+” indicates activity) |
| Fc1ccc(F)c2c(NCCc3ccc(Oc4cc(C(F)(F)F)ccn4)c(Cl)c3)ncnc12 [Compound 90] | + (“+” indicates activity) |
| Fc1ccc(F)c2c(NCCc3ccc(Oc4cnccc4C(F)(F)F)c(Cl)c3)ncnc12 [Compound 91] | + (“+” indicates activity) |
| Fc1cc(F)c2ncnc(NCCc3ccc(Oc4cc(C(F)(F)F)ccn4)c(Cl)c3)c2c1F [Compound 92] | + (“+” indicates activity) |
| Fc1cc(F)c2ncnc(NCCc3ccc(Oc4cnccc4C(F)(F)F)c(Cl)c3)c2c1F [Compound 93] | + (“+” indicates activity) |
| Fc1ccc(F)c2c(NCCc3ccccc3)ncnc12 [Compound 94] | + (“+” indicates activity) |

| SMILES | Activity against insects |
| --- | --- |
| Fc1ccc(F)c2c(NCCc3ccc(Oc4c(Cl)cnc(C(F)(F)F)c4Cl)cc3)ncnc12 [Compound 95] | − (“−” indicates lack of activity) |
| Fc1ccc(F)c2c(NCCc3ccc(Oc4ccnc(C(F)(F)F)c4Cl)cc3)ncnc12 [Compound 96] | + (“+” indicates activity) |
| Nc1c(F)c(F)nc(Oc2ccc(CCNc3ncnc4c(F)ccc(F)c34)cc2)c1F [Compound 97] | + (“+” indicates activity) |
| COc1cc(CCNc2ncnc3c(F)ccc(F)c23)ccc1Oc1nc(F)c(F)c(N)c1F [Compound 98] | + (“+” indicates activity) |
| Cc1cc(CCNc2ncnc3c(F)ccc(F)c23)ccc1Oc1nc(F)c(F)c(N)c1F [Compound 99] | + (“+” indicates activity) |
| Fc1nc(C(F)(F)F)nc(Oc2ccc(CCNc3ncnc4c(F)ccc(F)c34)cc2)c1F [Compound 100] | − (“−” indicates lack of activity) |
| COc1cc(CCNc2ncnc3c(F)ccc(F)c23)ccc1Oc1nc(C(F)(F)F)nc(F)c1F [Compound 101] | − (“−” indicates lack of activity) |
| Cc1cc(CCNc2ncnc3c(F)ccc(F)c23)ccc1Oc1nc(C(F)(F)F)nc(F)c1F [Compound 102] | − (“−” indicates lack of activity) |
| Fc1ccc(F)c2c(NCCc3ccc(Oc4cc(Cl)nc(C(F)(F)F)n4)cc3)ncnc12 [Compound 103] | − (“−” indicates lack of activity) |
| COc1cc(CCNc2ncnc3c(F)ccc(F)c23)ccc1Oc1cc(Cl)nc(C(F)(F)F)n1 [Compound 104] | − (“−” indicates lack of activity) |
| COc1ccc2c(c1)CC(Nc1ncnc3c(F)ccc(F)c13)C2 (centres unmarked) [Compound 105] | + (“+” indicates activity) |
| Oc1ccc2c(c1)CC(Nc1ncnc3c(F)ccc(F)c13)C2 (centres unmarked) [Compound 106] | − (“−” indicates lack of activity) |
| Fc1ccc(F)c2c(NCCc3ccc(Oc4ccnc(Cl)c4)cc3)ncnc12 [Compound 107] | + (“+” indicates activity) |
| COc1cc(CCNc2ncnc3c(F)ccc(F)c23)ccc1Oc1ccnc(Cl)c1 [Compound 108] | + (“+” indicates activity) |
| Fc1ccc(F)c2c(NCCc3ccc(Oc4cc(C(F)(F)F)ncn4)cc3)ncnc12 [Compound 109] | + (“+” indicates activity) |
| Fc1ccc(F)c2c(NC3Cc4ccc(Oc5cc(C(F)(F)F)ccn5)cc4C3)ncnc12 (centres unmarked) [Compound 110] | + (“+” indicates activity) |
| Fc1ccc(F)c2c(NC3Cc4ccc(Oc5ccc(C(F)(F)F)cn5)cc4C3)ncnc12 (centres unmarked) [Compound 111] | + (“+” indicates activity) |
| COc1cc(CCNc2ncnc3c(F)ccc(F)c23)ccc1Oc1cc(C(F)(F)F)ncn1 [Compound 112] | + (“+” indicates activity) |
| COc1cc(CCNc2ncnc3c(F)ccc(F)c23)ccc1Oc1ccnc(C(F)(F)F)n1 [Compound 113] | + (“+” indicates activity) |
| Fc1ccc(F)c2c(NCCc3ccc(Oc4ccnc(C(F)(F)F)n4)cc3)ncnc12 [Compound 114] | + (“+” indicates activity) |
| [O-][n+]1ccc(C(F)(F)F)c(Oc2ccc(CCNc3ncnc4c(F)ccc(F)c34)cc2)c1 [Compound 115] | + (“+” indicates activity) |
| Fc1cc(Oc2cc(C(F)(F)F)ncn2)ccc1CCNc1ncnc2c(F)ccc(F)c12 [Compound 116] | + (“+” indicates activity) |

| SMILES | Activity against insects |
| --- | --- |
| Cc1cc(CCNc2ncnc3c(F)ccc(F)c23)ccc1Oc1cc(C(F)(F)F)ncn1 [Compound 117] | + (“+” indicates activity) |
| Cc1cc(Oc2cc(C(F)(F)F)ncn2)ccc1CCNc1ncnc2c(F)ccc(F)c12 [Compound 118] | + (“+” indicates activity) |
| CC(Nc1ncnc2c(F)ccc(F)c12)c1ccccc1 (centres unmarked) [Compound 119] | − (“−” indicates lack of activity) |
| COc1ccc(C(C)Nc2ncnc3c(F)ccc(F)c23)cc1 (centres unmarked) [Compound 120] | − (“−” indicates lack of activity) |
| Fc1ccc(F)c2c(OCCc3ccc(OCC(F)(F)F)cc3)ncnc12 [Compound 121] | + (“+” indicates activity) |
| Fc1cc(Oc2ncc(C(F)(F)F)cc2F)ccc1CCNc1ncnc2c(F)ccc(F)c12 [Compound 122] | + (“+” indicates activity) |
| N#Cc1ccc(Oc2ccc(CCNc3ncnc4c(F)ccc(F)c34)cc2)nc1 [Compound 124] | + (“+” indicates activity) |
| N#Cc1cc(Cl)ncc1Oc1ccc(CCNc2ncnc3c(F)ccc(F)c23)cc1 [Compound 125] | + (“+” indicates activity) |
| N#Cc1cc(Oc2ccc(CCNc3ncnc4c(F)ccc(F)c34)cc2)ncc1Cl [Compound 126] | + (“+” indicates activity) |
| Fc1ccc(F)c2c(NCCc3ccc(Oc4cc(Cl)ncn4)cc3)ncnc12 [Compound 127] | + (“+” indicates activity) |
| N#Cc1c(Cl)cncc1Oc1ccc(CCNc2ncnc3c(F)ccc(F)c23)cc1 [Compound 129] | − (“−” indicates lack of activity) |
| Fc1cc(CCNc2ncnc3c(F)ccc(F)c23)ccc1Oc1ccc(C(F)(F)F)cn1 [Compound 130] | + (“+” indicates activity) |
| Fc1cc(CCNc2ncnc3c(F)ccc(F)c23)ccc1Oc1ncc(C(F)(F)F)cc1F [Compound 131] | + (“+” indicates activity) |
| Fc1cc(CCNc2ncnc3c(F)ccc(F)c23)ccc1Oc1cc(C(F)(F)F)ncn1 [Compound 132] | + (“+” indicates activity) |
| CC(Cc1ccc(Oc2cc(C(F)(F)F)ccn2)cc1)Nc1ncnc2c(F)ccc(F)c12 (centres unmarked) [Compound 134] | + (“+” indicates activity) |
| CC(Cc1ccc(Oc2cc(C(F)(F)F)ncn2)cc1)Nc1ncnc2c(F)ccc(F)c12 (centres unmarked) [Compound 135] | + (“+” indicates activity) |
| CC(Cc1ccc(Oc2ccc(C(F)(F)F)cn2)cc1)Nc1ncnc2c(F)ccc(F)c12 (centres unmarked) [Compound 136] | + (“+” indicates activity) |
| CC(Cc1ccc(Oc2ncc(C(F)(F)F)cc2F)cc1)Nc1ncnc2c(F)ccc(F)c12 (centres unmarked) [Compound 137] | + (“+” indicates activity) |
| CC(Cc1ccc(Oc2cnccc2C(F)(F)F)cc1)Nc1ncnc2c(F)ccc(F)c12 (centres unmarked) [Compound 138] | + (“+” indicates activity) |
| COc1ccc(C(C)CNc2ncnc3c(F)ccc(F)c23)cc1 (centres unmarked) [Compound 139] | − (“−” indicates lack of activity) |
| CC(CNc1ncnc2c(F)ccc(F)c12)c1ccc(O)cc1 (centres unmarked) [Compound 140] | − (“−” indicates lack of activity) |
